# Out of some 320,000 compounds screened, about 22,000 (6.9%) were called active. The shares of active, inactive and inconclusive entries below differ from those in the screen. Calls come from the whole dose curve; as a rule, active = well fitted inhibition curve with a large enough effect; inconclusive = small, poorly fitted or top-dose-only effect, or another doubt; inactive = no such curve, though single readings can be large or run the other way. Where the call is inconclusive, the potency comes from a doubtful curve fit.
# Assay: Primary qHTS for delayed death inhibitors of the malarial parasite plastid, 96 hour incubation
# Conditions: P. falciparum luciferase reporter growth; series mostly up to 28.7 µM
# How it was run: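 Erythrocytes infected with luciferase-expressing P. falciparum were dispensed at 2% hematocrit and 0.05% parasitemia (final), then incubated with compounds 96 hours at 37 C in 5% CO2. Luminescence after detection reagent addition reported growth.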
# % is set by controls: 0 for no effect and ±100 for the full control effect; potency is the fitted concentration of half-maximal effect.
Structure (SMILES),Potency,"activity change, negative = inhibition"
COc1ccccc1CNC(=O)C(=O)NCCC1CCCCN1S(=O)(=O)c1ccccc1 (stereo not drawn),"inconclusive: 7.38 µM [inhibitor, partial curve]",–
O=C(NC(=S)Nc1ccc(CN2CCCCC2)cc1)c1cc2ccccc2o1,inactive,–
Cc1cc(Cl)ccc1OCC(=O)NC(=S)Nc1ccc(Cl)cn1,"inconclusive: 16.5 µM [inhibitor, single point]",–
CC1(C)CC(=O)C2=C(C1)N(c1ccc(F)cc1)C(=O)C2(NC(=O)c1ccccc1F)C(F)(F)F (stereo not drawn),"inconclusive: 14.7 µM [inhibitor, single point]",–
CCCCCn1c(N)c(C#N)c2nc3ccccc3nc21,"inconclusive: 9.28 µM [inhibitor, single point]",–
CC1C(c2ccccc2)=[N+]([O-])C2(CCCC2)N1O (stereo not drawn),"inconclusive: 18.5 µM [inhibitor, single point]",–
O=C(COC(=O)c1ccncc1)NCCCc1ccccc1,inactive,–
C#CCOCCOCCOCCNc1nc(N2CCN(C(=O)[C@H]([C@@H](C)CC)n3cc(CCCN=C(N)N)nn3)CC2)nc(N2CCN(C(=O)[C@H](CCCCN)n3cc(CC(C)O)nn3)CC2)n1 (stereo partly drawn),"inconclusive: 18.5 µM [inhibitor, single point]",–
O=C(CSc1nc2sc3c(c2c(=O)n1-c1ccccc1)CCCC3)NCc1ccco1,"inconclusive: 14.7 µM [inhibitor, partial curve, poor fit]",–
C=CCn1c(NCc2ccc3c(c2)OCO3)nc2ccccc21,"inconclusive: 11.7 µM [inhibitor, single point]",–
COCCOC(=O)c1[nH]c2c(c1C)C(=O)C(C(=O)OC)C(C)C2 (stereo not drawn),"inconclusive: 18.5 µM [inhibitor, single point]",–
CC(C)(C)OC(=O)N1CCC[C@H]1c1nnc(SCc2c(Cl)cccc2Cl)o1,"inconclusive: 18.5 µM [inhibitor, single point]",–
CC1=CC(=O)C(C(C)C)=C/C1=N/OC(=O)c1cccc([N+](=O)[O-])c1,"inconclusive: 5.86 µM [inhibitor, partial curve, poor fit]",–
Cc1nc2ccc(-c3ccccc3)cc2o1,inactive,–
CCCCn1c(=O)c(C(=O)NC(C)c2ccccc2)c(O)c2ccccc21 (stereo not drawn),"inconclusive: 16.5 µM [inhibitor, single point]",–
CN1CCN(CCC(=O)N/N=C/c2ccccn2)CC1,"inconclusive: 18.5 µM [inhibitor, single point]",–
CCc1nc2oc3cc(OC)ccc3c(=O)c2c(=O)n1Cc1ccccc1,"inconclusive: 8.28 µM [inhibitor, partial curve, poor fit]",–
Cc1ccc(-n2nnc(-c3cc4ccccc4n3C)n2)cc1,"inconclusive: 2.08 µM [inhibitor, full curve, poor fit]",–
Cc1[nH]c(=O)[nH]c(=O)c1/C=N/NC(=O)[C@H](CC(C)C)NC(=O)OC(C)(C)C,inactive,–
CC(C)(C)c1ccc(C(=O)NC(=S)Nn2cnnc2)cc1,"inconclusive: 18.5 µM [inhibitor, single point]",–
COc1ccc(/C=N\Nc2ncc(F)c(N3CCOCC3)n2)cc1OC,"inconclusive: 3.29 µM [inhibitor, full curve]",–
CCNc1ccc(Br)cc(C(=O)/C=C/c2c(Cl)cccc2Cl)c1=O,"inconclusive: 18.5 µM [inhibitor, single point]",–
COc1ccc(C(C)(C)C)cc1NC(=O)CCCn1c(=O)oc2ccccc21,"inconclusive: 13.1 µM [inhibitor, single point]",–

# Part of the list above in order of molar mass, low to high:
Structure (SMILES),Potency,"activity change, negative = inhibition"
CC(C)(C)c1ccc(C(=O)NC(=S)Nn2cnnc2)cc1,"inconclusive: 18.5 µM [inhibitor, single point]",–
COc1ccc(/C=N\Nc2ncc(F)c(N3CCOCC3)n2)cc1OC,"inconclusive: 3.29 µM [inhibitor, full curve]",–
COc1ccc(C(C)(C)C)cc1NC(=O)CCCn1c(=O)oc2ccccc21,"inconclusive: 13.1 µM [inhibitor, single point]",–

# More records follow:

Structure (SMILES),Potency,"activity change, negative = inhibition"
O=C(O)c1ccc(Nc2ccc(Cl)c(Cl)c2)c([N+](=O)[O-])c1,"inconclusive: 4.15 µM [inhibitor, partial curve]",–
COC(=O)c1ccc(S(=O)(=O)N2CCOCC2)o1,"inconclusive: 1.85 µM [inhibitor, single point]",–
Cc1c(Cl)c([N+](=O)[O-])nn1CC(=O)N1CCc2ccccc2C1,"inconclusive: 0.0029 µM [inhibitor, full curve, poor fit]",–
O=C(NC(=S)Nc1ccc(N2CCCCC2)c(Cl)c1)c1ccc2c(c1)OCCO2,"inconclusive: 18.5 µM [inhibitor, single point]",–
O=C(N/C=C/c1ccco1)Nc1cccc(Cl)c1,inactive,–
COc1ccccc1-c1noc(-c2ccccc2C(=O)NCC2CCCO2)n1 (stereo not drawn),inactive,–
Cc1ccnn1-c1ccc(C(=O)NCC(c2ccco2)N2CCCC2)cc1 (stereo not drawn),"inconclusive: 18.5 µM [inhibitor, single point]",–
Cc1cc(C(=O)N/N=C/c2ccc(N3CCOCC3)cc2)c(C)o1,"inconclusive: 18.5 µM [inhibitor, single point]",–
O=c1c2ccccc2cnn1Cc1n[nH]c(=S)n1-c1ccccc1Cl,inactive,–
CCOC(=O)CNC(=S)N(CCCN1CCCCC1)Cc1cccs1,"inconclusive: 4.15 µM [inhibitor, single point]",–
CC(=O)NC12CC3CC(C1)CC(C(=O)NCC(=O)Nc1c(C)cc(C)cc1C)(C3)C2,inactive,–
COc1cc2cc(C(c3nnnn3C(C)(C)C)N3CCc4ccccc43)c(=O)[nH]c2cc1OC (stereo not drawn),"inconclusive: 18.5 µM [inhibitor, single point]",–
Cc1ccccc1C(=O)Nc1ccccn1,inactive,–
Cc1cccc(Nc2nc(-c3c(C)nc4ccccn34)cs2)c1,"inconclusive: 11.7 µM [inhibitor, partial curve, poor fit]",–
COc1cc(/C=C/C(=O)NCc2nc3ccccc3[nH]2)cc(OC)c1OC,"inconclusive: 9.28 µM [inhibitor, partial curve, poor fit]",–
C#CC[N+](C)(C)CC#Cc1ccc(C)cc1,"inconclusive: 0.329 µM [inhibitor, full curve, poor fit]",–
O=C(CN(Cc1ccc2c(c1)OCO2)C(=O)CNS(=O)(=O)c1ccccc1)NCc1ccco1,active: 2.33 µM,–
CCCCOc1ccc(C2/C(=C(/O)c3ccc4c(c3)CC(C)O4)C(=O)C(=O)N2CCCN2CCOCC2)cc1OC (stereo not drawn),"inconclusive: 18.5 µM [inhibitor, single point]",–
Cc1ccc(Nc2ncnc3nc[nH]c23)cc1Cl,inactive,–
Cc1cc(C)c2cc(CN(CCN3CCCC3)C(=O)Nc3ccc(F)cc3)c(=O)[nH]c2c1,"inconclusive: 8.28 µM [inhibitor, partial curve, poor fit]",–
O=C(NCCS(=O)c1ccc(Cl)cc1)c1cccc(Cl)c1 (stereo not drawn),inactive,–
CCCc1ccc(NC(C)C(=O)Nc2ccc(S(=O)(=O)N3CCOCC3)cc2)cc1 (stereo not drawn),active: 5.22 µM,–
COc1ccc(-c2nc(-c3ccccc3)nc(N3CCN(C)CC3)c2C#N)cc1,active: 13.1 µM,–

# Shown with tabs: entries from further up.
Structure (SMILES)	Potency	activity change, negative = inhibition
COC(=O)c1ccc(S(=O)(=O)N2CCOCC2)o1	inconclusive: 1.85 µM [inhibitor, single point]	–
Cc1cccc(Nc2nc(-c3c(C)nc4ccccn34)cs2)c1	inconclusive: 11.7 µM [inhibitor, partial curve, poor fit]	–

# Later entries:

Structure (SMILES),Potency,"activity change, negative = inhibition"
CC(C)Oc1ccc(CCC(=O)NNC(=O)CCC(=O)O)cc1,inactive,–
Cc1nn2cnc3sc4c(c3c2nc1=O)CCCC4,"inconclusive: 18.5 µM [inhibitor, single point]",–
COc1ccc(NC(=O)CC(C)(C)C)c([N+](=O)[O-])c1,"inconclusive: 4.15 µM [inhibitor, partial curve, poor fit]",–
NC(=O)[C@H]1CC2(CC(c3cccc(NC(=O)COc4ccc(Cl)cc4)c3)=NO2)CN1C(=O)Cc1ccc([N+](=O)[O-])cc1 (stereo partly drawn),active: 11.7 µM,–
CCOC(=O)Cc1[nH]nc2c1C(c1ccsc1)C(C#N)=C(N)O2 (stereo not drawn),inactive,–
Cc1ccc2c(c1)N(C(=O)c1ccco1)C(C)(C)c1ssc(=S)c1-2,active: 5.22 µM,–
Cc1noc(C)c1COc1ccccc1C(=O)Nc1cccc(S(=O)(=O)N(C)C)c1,"inconclusive: 11.7 µM [inhibitor, partial curve]",–
Cc1cccc(Nc2cc(=O)n(C)c(=O)[nH]2)c1,"inconclusive: 18.5 µM [inhibitor, partial curve, poor fit]",–
COc1ccc(-c2c(C)nn3c(NC4CCCC4)cc(C)nc23)cc1OC,"inconclusive: 0.0586 µM [inhibitor, full curve, poor fit]",–
O=c1nc2ccc(Cl)cn2c2ccc(S(=O)(=O)N3CCCCC3)cc12,"inconclusive: 9.28 µM [inhibitor, partial curve, poor fit]",–
CSc1ccc(CN(C)C(=O)C23CC4CC(CC(Cl)(C4)C2)C3)cc1,"inconclusive: 18.5 µM [inhibitor, single point]",–
CC(=O)c1cc2c(cc1NS(=O)(=O)c1ccc(F)cc1)OCO2,inactive,–
COc1ccc(OC)c(N/C=C/C(=O)c2ccc(OC)c(OC)c2)c1,"inconclusive: 18.5 µM [inhibitor, single point]",–
Cc1ccc(C(=O)NC(=S)Nc2ccccc2C(F)(F)F)cc1C,"inconclusive: 2.94 µM [inhibitor, full curve, poor fit]",–
c1csc(-c2nnsc2-c2nc3ccccc3[nH]2)c1,"inconclusive: 18.5 µM [inhibitor, single point]",–
CCOc1ccccc1NC(=O)CSCC(=O)Nc1ccccc1,"inconclusive: 11.7 µM [inhibitor, single point]",–
Cc1nnn(-c2nonc2N)c1C(=O)N/N=C/c1cccc2ccccc12,inactive,–
Cc1cc(C)n(CC(=O)NC2CCCCC2)n1,"inconclusive: 1.04 µM [inhibitor, partial curve, poor fit]",–
Nc1nc(NC(=O)CCCC(=O)O)nn1-c1ccccc1,–,inactive: 19.7% [at 5.75 µM]
O=Cc1c(N2CCC3(CC2)OCCO3)nc2ccccn2c1=O,inactive,–
CCc1ccc(CNC(=O)C2CC(=O)N(C3CCCC3)C2)cc1 (stereo not drawn),active: 2.62 µM,–
CC(C)(C)c1ccccc1N=Cc1ccc2ccccc2n1,inactive,–
